# Measured values reported in PubChem BioAssay AID493014 (National Center for Advancing Translational Sciences (NCATS), 2011).
# In all, about 340,000 compounds went through this assay and about 170 (0.05%) were called active. Inconclusive results, whose numbers are uncertain, are shown with a selection of clear calls. Calls come from the whole dose curve; as a rule, active = well fitted inhibition curve with a large enough effect in the signal ratio, with a control signal flat (not every such curve was filed as active); inconclusive = small, poorly fitted or top-dose-only effect, or effect the other way, or a change in a side signal; inactive = flat fitted curve, though single readings scatter; the % refers to the signal ratio. Potencies of inconclusive entries are doubtful fits and often do not repeat.
# Experiment: qHTS Assay to Find Inhibitors of Chronic Active B-Cell Receptor Signaling;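 for activity change, negative = inhibition: plate controls were basal doxycycline-induced cells for no effect and cells given 10 µM MG132 for full effect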
# Conditions: ABC-DLBCL IkBa-CBG/CBR reporter, luminescence ratio (green luciferase fused to IkBa over red control in TMD8 lymphoma cells), 4 h; activity change, negative = inhibition: at 46.1 µM (top of the series)
# Method in brief: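 TMD8 ABC-DLBCL cells carrying doxycycline-inducible green luciferase fused to IkappaBalpha plus unfused red luciferase were exposed to compounds (up to 46 uM) for 4 hrs at 37C. Activity came from the overlap-corrected green/red luminescence ratio.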
# Potency is the fitted concentration of half-maximal effect.
Structure (SMILES),"activity change, negative = inhibition",Potency
O=C(CSc1nc2ncccc2[nH]1)Nc1ccc2c(c1)OCO2,inconclusive: -18.9%,–
CCOc1cc(/C=C/C(=O)OCC(=O)NC2CCS(=O)(=O)C2)ccc1OCc1ccccc1 (stereo unspecified),inconclusive: 18.3%,–
Cc1c(C(=O)N2CCOCC2)c(S(=O)(=O)Nc2ccccc2)c(C)n1C,inconclusive: -7.21%,–
COc1cccc(C(=O)Nc2cccc3c2ccc2cccn23)c1,inactive: -12.1%,–
CNc1ccc(Br)cc(C(=O)/C=C/c2ccc(OC)cc2)c1=O,inactive: -14.3%,–
N#C/C(=C(/O)COC(=O)c1ccc2c(c1)OCCO2)c1nc2ccccc2[nH]1,inactive: -1.64%,–
CNC(=O)CCCc1nc(-c2ccccc2Cl)no1,inconclusive: 7.17%,–
COc1cc(C=C2C(=O)c3ccccc3C2=O)cc(OC)c1OC,inconclusive: -15.4%,–
CC(=O)C1CCC2C3CCC4=CC(=O)CC[C@]4(C)[C@@]3(F)C(O)C[C@]12C (stereo partly specified),inconclusive: -8.03%,–
CC(C)(C)C(=O)NC(NC(=S)Nc1sc2c(c1C#N)CCCC2)C(Cl)(Cl)Cl (stereo unspecified),inactive: 17.2%,–
CCCCn1nc(C(=O)NCC2COc3ccccc3O2)c2ccccc2c1=O (stereo unspecified),inconclusive: -1.06%,–
O=c1cc2c(nn1Cc1cccc(Cl)c1)-c1ccccc1CC2,inconclusive: -17.1%,–
COc1ccccc1[C@@H]1C(c2cccc(C)c2)=NN(c2ccccc2)[C@H]1C(=O)N1CCOC1=O,inactive: 3.72%,–
COc1ccccc1/C=C/C(=O)OCC(=O)c1c[nH]c2ccccc12,–,"inconclusive: 18.4 µM [falling, partial curve, poor fit]"
CCCOc1cccc(CN2CCCCC2c2cccnc2)c1 (stereo unspecified),–,"inconclusive: 5.8 µM [rising, partial curve, poor fit]"
Cc1ccccc1NC(=O)N1CCCC(c2nc(-c3ccc(F)cc3)no2)C1 (stereo unspecified),inactive: 9.75%,–
O=C(NCCN1CCCC1)c1ccc2c(c1)N(Cc1cccc(Cl)c1)C(=O)c1ccccc1S2(=O)=O,inactive: 1.84%,–
CN(CC/C=C1/c2ccccc2CSc2ccccc21)CCCO,inconclusive: -6.07%,–
Cc1ccsc1C(=O)NNC(=O)Nc1ccc(Cl)c(Cl)c1,inconclusive: -16.9%,–
Cc1c(C(=O)NCc2ccccc2)oc2ccc(S(=O)(=O)N3CCCC3)cc12,inconclusive: -11%,–
O=[N+]([O-])c1ccc2c(c1)C(N1CCOCC1)/C(=C/COc1ccc(F)cc1)O2 (stereo unspecified),inconclusive: -6.95%,–
O=C(COC(=O)c1ccccc1NC(=O)c1ccccc1)c1ccc([N+](=O)[O-])cc1,–,"inconclusive: 20.6 µM [falling, partial curve]"
Brc1c(OCCOCCn2cncn2)ccc2ccccc12,inconclusive: -0.644%,–
O=C(c1ccco1)N1CCN(c2ccc(N3CCCCC3)nn2)CC1,inactive: 4.67%,–
CCOc1ccc(CN2CCN(c3ncnc4scc(-c5ccccc5)c34)CC2)cc1,inactive: -0.826%,–
COc1ccc(-c2cc(C(=O)N(C)CC(=O)Nc3ccccc3Br)c3ccccc3n2)cc1OC,inconclusive: -15.4%,–

Structure (SMILES),"activity change, negative = inhibition",Potency
CC(=O)Nc1ccc(NC(=O)CSc2ccc(C)cc2)cc1,–,"inconclusive: 6.51 µM [falling, single point]"
C=CCONC(=O)Cc1ccccc1,inactive: -0.394%,–
O=C1/C(=C/c2ccc(Br)cc2)Oc2cc(O)ccc21,inconclusive: 9.26%,–
O=C(Nc1ccccc1)Nc1scc2c1c(=O)oc1ccccc12,–,"inconclusive: 22.4 µM [falling, partial curve, poor fit]"
COc1ccc2[nH]c(C(=O)N/N=C/c3cc(OC)c(OC)c(OC)c3)cc2c1,–,"inconclusive: 12.6 µM [falling, partial curve]"
CCCOc1cccc(C2/C(=C(/O)c3ccc4c(c3)CC(C)O4)C(=O)C(=O)N2CCN2CCOCC2)c1 (stereo unspecified),inconclusive: 0.122%,–
Cn1c2ccccc2c(=O)c2c(=O)n(Cc3ccco3)c(-c3ccc(C(C)(C)C)cc3)nc21,inconclusive: -1.85%,–
CSCCC(NS(=O)(=O)c1ccccc1F)C(=O)NCCCn1nc(C)cc1C (stereo unspecified),inactive: -24.5%,–
CCO[C@@H]1OC(C(=O)N2CCN(Cc3ccc4c(c3)OCO4)CC2)=C[C@H](c2csc3ccccc23)[C@H]1CCCO,inconclusive: 12.7%,–
Cc1ccc(S(=O)(=O)CC(O)COc2ccc(F)cc2Cl)cc1 (stereo unspecified),inactive: -1.1%,–
CC(C)(C)n1ncc2c(=O)n(CC(=O)N3CCc4ccccc43)cnc21,inconclusive: -0.718%,–
C/C(=N\NC(=O)CSc1nc2ccccc2s1)c1ccco1,inconclusive: -9.23%,–
C/C(CC(=O)Nc1ccc(C)c(Cl)c1)=N\NC(=O)c1cccc(O)c1,–,"inconclusive: 15.8 µM [falling, partial curve]"
Cc1ccccc1NC(=O)C1CCC(=O)N1 (stereo unspecified),inconclusive: 15.2%,–
COc1ccc(S(=O)(=O)N(C)C[C@H]2Oc3c(NC(=O)Nc4ccc(C(F)(F)F)cc4)cccc3C(=O)N([C@H](C)CO)C[C@@H]2C)cc1,inconclusive: 1.08%,–
COC(=O)CN(c1ccc(OC)cc1)S(=O)(=O)c1ccc(OC)c(OC)c1,inconclusive: -2.62%,–
COc1cccc2cc(-c3cn4c(n3)sc3cc(F)ccc34)c(=O)oc12,–,"inconclusive: 1.78 µM [falling, partial curve]"
O=C(c1ccco1)N1CCN(Cc2nc(Cc3ccccc3)no2)CC1,–,"inconclusive: 35.5 µM [falling, single point]"
COc1ccc(C(=O)NCC(c2cccs2)S(=O)(=O)c2ccc(F)c(C)c2)cc1 (stereo unspecified),inconclusive: 19.9%,–
CO/C([O-])=N/c1c[n+](-c2ccc(Cl)cc2)no1,inactive: 1.5%,–
Cc1ccc(F)c([C@H]2[C@@H]3C=CCC[C@@]3(C)C(=O)N2Cc2ccccc2)c1,inconclusive: -12.8%,–
CCOc1ccc(CCNC(=O)c2cccc(NC3=NC4CS(=O)(=O)CC4S3)c2)cc1OCC (stereo unspecified),inconclusive: -3.06%,–
CCCOC(=O)C1=C(C)NC(=O)NC1c1cccc2ccccc12 (stereo unspecified),inactive: -0.0729%,–
C=CCn1c(O)c(N=NC(=S)Nc2ccccc2C)c2cc(S(=O)(=O)N3CCOCC3)ccc21,–,"inconclusive: 0.731 µM [falling, full curve, poor fit]"
O=C(CCN1C(=O)COc2ccccc21)NCCC1=CCCCC1,inconclusive: 2.05%,–

# A portion of the results above, as a working copy:
Structure (SMILES),"activity change, negative = inhibition",Potency
Cc1c(C(=O)N2CCOCC2)c(S(=O)(=O)Nc2ccccc2)c(C)n1C,inconclusive: -7.21%,–
COc1cccc(C(=O)Nc2cccc3c2ccc2cccn23)c1,inactive: -12.1%,–
